Source: ChEMBL document CHEMBL3988442, “University of Dundee, Small-Polar-MMV Screening Library” (2021).

Sequences of proteins named here, by UniProt entry; tags and fusion partners are left off. Residues count along the entry.
UniProt Q4DA54, 1-478: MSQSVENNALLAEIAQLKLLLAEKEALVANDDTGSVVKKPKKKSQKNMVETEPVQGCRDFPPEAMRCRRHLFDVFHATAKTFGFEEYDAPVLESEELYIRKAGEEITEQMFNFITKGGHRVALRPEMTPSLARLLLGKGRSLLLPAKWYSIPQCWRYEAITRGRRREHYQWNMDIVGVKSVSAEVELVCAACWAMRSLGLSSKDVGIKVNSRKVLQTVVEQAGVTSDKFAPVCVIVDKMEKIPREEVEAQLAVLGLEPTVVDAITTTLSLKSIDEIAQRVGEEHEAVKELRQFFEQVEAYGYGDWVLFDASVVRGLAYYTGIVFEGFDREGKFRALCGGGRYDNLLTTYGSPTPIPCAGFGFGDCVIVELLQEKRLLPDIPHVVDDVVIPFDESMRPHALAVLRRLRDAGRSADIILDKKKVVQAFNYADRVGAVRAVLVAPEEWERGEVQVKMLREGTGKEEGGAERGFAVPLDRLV

Each number is a percent effect as filed.
How 0% and 100% were set is not recorded. Most values in the screen are low, and negative values occur.
This is an unselected part of the compounds tested.

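Histidine-tRNA ligase, Trypanosoma cruzi CL Brener (UniProt Q4DA54). Enzyme assay of histidyl-tRNA synthetase; the read-out is not stated. Tested at 30 µM. Higher reads as stronger inhibition (inferred: compounds with an IC50 in retests scored well above the rest). About 69,000 compounds were tested under these conditions; 0.045% (about 31) showed 50% or more at least once.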

| compound | Percent Effect |
|---|---|
| `CCC[C@@H]1CN(Cc2nnc(-c3cccnc3)o2)C[C@H]1NC(C)=O` | 4.762 |
| `CN(C)C(=O)Cn1c(C2CC2)c(CN2CCSCC2)c2cccnc21` | 5.426 |
| `O=C(CC1=CCCCC1)NCc1ccnc(OC2CCOCC2)c1` | 3.448 |
| `CC(C)Cc1noc(CC2CCS(=O)(=O)C2)n1` (stereo not shown) | 9.877 |
| `Nc1nc(C(=O)NCC2CCC3(CCNCC3)CO2)cs1` (stereo not shown) | 3.797 |
| `CC(C)(C)c1cc(=O)[nH]c(C2(N)CCCC2)n1` | 0 |
| `CCc1noc(C)c1C(=O)NCCCC(CC)(CC)C1OCCO1` | 3.448 |
| `O=C(c1cc(Br)ccc1-n1cnnn1)N1CCCCC1` | 9 |
| `CC(Cn1cncn1)NC(=O)Nc1ccc(COC2CCCC2)cc1` (stereo not shown) | 4.255 |
| `C[C@@H](O)CNC(=O)c1nc(Cc2c(Cl)cccc2Cl)no1` | 9.278 |
| `Cc1cc(N2CCOC(c3ccncn3)C2)ncn1` (stereo not shown) | 6.154 |
| `CC(C)NC(=O)CC1COC2(CCN(Cc3ccsc3)CC2)C1` (stereo not shown) | 6.25 |
| `Cc1cc(Cl)c(C)c(S(=O)(=O)N2CCN(Cc3ccccn3)CC2)c1Cl` | 5.473 |
| `O=C(Cc1ccc2c(c1)CCCC2)NCCc1ccccn1` | -1.515 |
| `CN(C)CCN1CCOCC12CCN(C(=O)C1CC1)CC2` | 1.905 |
| `COCCN1C=NC2(CCC(C(=O)Nc3ccc(C)cc3)CC2)C1=O` (stereo not shown) | -0.5348 |
| `CN(C)Cc1nc(C(C)(C)NC(=O)C2CC(=O)N(CC3CC3)C2)no1` (stereo not shown) | 2.682 |
| `CCc1nc(CN2CCCN(C(=O)c3ccccc3)CC2)cs1` | 9.639 |
| `Cc1sc2nc(CCN)nc(N3CCC(N4CCCC4)CC3)c2c1C` | 9.195 |
| `COc1ccc(CN2CCCC2)cc1Oc1ccc(NC(C)=O)cc1` | 5.978 |
| `CCOc1nnc(CN2CCCC(c3nc4ccccc4[nH]3)C2)s1` (stereo not shown) | 2.463 |
| `COC(=O)[C@@H](NC(=O)Nc1ccc(C(C)=O)cc1)C(C)C` | 3 |
| `Cc1ccc(-c2noc([C@@H]3Cc4nc[nH]c4CN3)n2)cc1` | 3.96 |
| `Cc1cc(C)cc(NC(=O)N(CCC#N)CCCN(C)C)c1` | 0 |
| `COc1cccc(-c2cnc(CNC(C)(C)c3nc(C)cs3)o2)c1` | 5.319 |
| `O=C(NCc1ccc(-n2cncn2)nc1)c1ccc2c(c1)CCC2` | 9.593 |
| `COc1ccccc1CC1CCCN(CCC#N)C1` (stereo not shown) | -1.887 |
| `COc1cccc(CC2CCCN2CCCC#N)c1` (stereo not shown) | 8.046 |
| `CN(Cc1cc(Br)cn1C)C(=O)Cc1cccc(O)c1` | -2.469 |
| `O=C(NCCCO)Nc1cccc(C[S+]([O-])c2ccccc2)c1` (stereo not shown) | 10.71 |
| `Cc1ccncc1C(=O)N1C[C@H]2CN(CC3CCC3)C[C@@]2(C(=O)O)C1` | 1.288 |
| `Cc1ccc(NC(=O)C2CSCN2C(=O)c2cccnc2)c(C)c1` (stereo not shown) | 1.466 |
| `CN(C)CCN1CC2(CCN(C(=O)c3cnccn3)CC2)OC1=O` | 7.447 |
| `O=C(c1ccc2c(c1)[nH]c(=O)n2[C@H]1CC[C@H](O)CC1)N1CCOCC1` | 1.149 |
| `O=C(c1cc[nH]n1)N1CC[C@@H]2CN(Cc3ccncc3)S(=O)(=O)[C@@H]2CC1` | 0 |
| `CN1CCN(C2CCN(CCOc3cccc(Cl)c3)CC2)C1=O` | 3.448 |
| `CNc1cc(-c2ccncc2)ncn1` | 4.52 |
| `CN1CCC(C(=O)NCc2nncn2-c2ccccc2)CC1=O` (stereo not shown) | 0.7519 |
| `COC(=O)c1cccc(-c2nc(CC3CCN(C)CC3)no2)c1` | 5.978 |
| `Cc1ccc(CNC(=O)CN2CCN(CC(O)C3CC3)CC2)cc1` (stereo not shown) | 3.261 |
| `CC(C)c1nc(C2CCCN2Cc2nccn2CC(F)(F)F)no1` (stereo not shown) | 6.916 |
| `COc1ccc(CCN2CCc3c(nc(C4CC4)n3C)C2)cc1` | 4.58 |
| `CC1(C(=O)N2CCC(n3cc(C4(O)CCCC4)nn3)CC2)CCCCC1` | 5.195 |
| `COCCCC(=O)Nc1cc(Cl)c(Cl)cn1` | 4.444 |
| `Cc1ccc(=O)n(Cc2nc(C(C)OCC(C)C)no2)n1` (stereo not shown) | 0.4926 |
| `CCN(Cc1nonc1C)C(=O)Cn1nc(C(F)(F)F)cc1C1CC1` | 0 |
| `COCCCNC(=O)CN(C)C(=O)CN(C)c1ccc(C#N)cn1` | 11.06 |
| `Cc1n[nH]c(C2CN(CC(=O)NCCc3ccccc3C)CCO2)n1` (stereo not shown) | 9.202 |
| `CC(C)(C)c1cc(C(=O)NCCN2CCCS2(=O)=O)[nH]n1` | 3.529 |
| `CCCNc1ncc(CN2CCC3(CC2)CNC(=O)C3)cn1` | -2.703 |
| `Cn1ccnc1CN1CCCN(C(=O)c2ccc3ccccc3c2)CC1` | 2.89 |
| `O=C1CCC2(CCCN(C(=O)Cc3ccccc3)C2)N1` (stereo not shown) | 4.854 |
| `c1ccc(CCN2CCCC(c3ccnc4nccn34)C2)cc1` (stereo not shown) | 8.812 |
| `COCCCC(=O)Nc1[nH]nc(-c2ccncc2)c1C` | 5.051 |
| `COCCNCc1cc2ccc(C)c(C)c2[nH]c1=O` | 3.448 |
| `c1ccc(N2CCCC(c3nc(-c4cccnn4)no3)C2)nc1` (stereo not shown) | 1.316 |
| `Cn1cc(CN2CCCn3cnc(CN4CCCC4=O)c3C2)cn1` | 1.622 |
| `Cc1cc(CN(C)C(=O)c2cccc(N3CCCC3=O)c2)no1` | 3.008 |
| `COc1ccc(C(=O)CCc2nc(C3CC3)no2)cc1` | 4.327 |
| `CC(C)CCN(C(=O)c1nc(S(C)(=O)=O)n2ccccc12)C1CC1` | 6.158 |
| `Cn1nc(COCC2CC2)c2c1CN(C(=O)c1ccno1)CC2` | 3.226 |
| `O=C1[C@H]2CN(C3CCOCC3)C[C@H]2CN1Cc1cccc(F)c1` | 8.696 |
| `COCCNc1ccc(CC2CCCN(Cc3c[nH]cn3)C2)nn1` (stereo not shown) | 4.615 |
| `Cc1nc2ccccc2c(=O)n1CCC(=O)N1CCCC1` | 7.101 |
| `CCS(=O)(=O)N1CCc2ccc(NC(=O)Nc3ccc(F)cc3F)cc21` | -1.087 |
| `CN1C(=O)CC(c2cnn(C)c2)C12CCN(C(=O)c1ccno1)CC2` (stereo not shown) | 7.563 |
| `Cc1cc(N(C)C)nc(C2(C)CCCN2C(=O)c2ccn(C)n2)n1` (stereo not shown) | 0.7491 |
| `CCCS(=O)(=O)NCc1cccnc1OCC` | 0 |
| `Cc1cn2c(n1)C(CNCc1cnn3ccccc13)CCC2` (stereo not shown) | -1.19 |
| `COc1c(CNCCc2c[nH]c3cc(F)ccc23)c(C)nn1C` | 16.16 |
| `c1cncc(COCC2CN(Cc3ccncc3)Cc3ccnn3C2)c1` (stereo not shown) | 6.522 |
| `O=C(c1ccco1)N1CCc2c(nc(-c3ccncc3)[nH]c2=O)C1` | 0 |
| `c1csc(-c2noc(CN3CCCCC3Cn3cccn3)n2)c1` (stereo not shown) | 3.779 |
| `CC(NC(=O)NCCNc1ncccn1)c1cccs1` (stereo not shown) | -0.7634 |
| `CC(=O)N1CCC2(CC1)[C@@H]1CN(Cc3cccnc3)C[C@@H]1C(=O)N2C` | 6.796 |
| `CN(CC(=O)NCC1CCCO1)Cc1nc2c(s1)CCCC2` (stereo not shown) | -4.969 |
| `O=C(c1ncoc1-c1ccco1)N(Cc1ccco1)CC1CCCO1` (stereo not shown) | 1.571 |

Repeated from the top, 8 entries:

| compound | Percent Effect |
|---|---|
| `CCC[C@@H]1CN(Cc2nnc(-c3cccnc3)o2)C[C@H]1NC(C)=O` | 4.762 |
| `CN(C)C(=O)Cn1c(C2CC2)c(CN2CCSCC2)c2cccnc21` | 5.426 |
| `O=C(CC1=CCCCC1)NCc1ccnc(OC2CCOCC2)c1` | 3.448 |
| `CC(C)Cc1noc(CC2CCS(=O)(=O)C2)n1` (stereo not shown) | 9.877 |
| `Nc1nc(C(=O)NCC2CCC3(CCNCC3)CO2)cs1` (stereo not shown) | 3.797 |
| `CC(C)(C)c1cc(=O)[nH]c(C2(N)CCCC2)n1` | 0 |
| `CCc1noc(C)c1C(=O)NCCCC(CC)(CC)C1OCCO1` | 3.448 |
| `O=C(c1cc(Br)ccc1-n1cnnn1)N1CCCCC1` | 9 |